# Source: patent publication US10441589B2, “Combinations and methods comprising a capsid assembly inhibitor” (Novira Therapeutics, Inc., priority 2016, dated 2019)
# At least one structure is not confirmed: it was looked up by name or label, or the drawing left a doubt.
# Key:
# [1] = test system: rtL180M/M204V/N236T HBV variant; test: Antiviral activity in HepG2 cells transiently transfected with rtL180M/M204V/N236T HBV variant; format: cell-based, HBV genotype B; details: up to the highest concentration tested (100 μM)
# Description: (§1) In this example, the antiviral activity of Compound 1 was determined using HepG2 liver cells transiently transfected with plasmids expression replication-competent HBV DNA and quantitation of intracellular encapsidated HBV DNA. The antiviral activity of Compound 1 was measured against nucleoside inhibitor sensitive, wild-type HBV, as well as against HBV variants resistant to nucleoside analogs that contain defined amino acid changes in the coding sequence of the reverse transcriptase protein: rtL180M/M204V, rtN236T, rtA181V, rtA181V/N236T, and rtL180M/M204V/N236T. […]
# (§2) HepG2 cells were seeded in collagen coated 96-well plates (BIOCOAT™; Fisher Scientific, Catalog#354407) at a density of 20,000 cells/well and allowed to attach overnight at 37° C. and 5% CO2. […] Cells were incubated with compounds for three days, after which intracellular HBV DNA was extracted from cells and levels of secreted Gaussian luciferase was determined from the medium using the Gaussia Flash Luciferase assay kit (THERMO SCIENTIFIC™, Fisher Scientific, Catalog#16158). […]
# [2] = test system: rtL180M/M204V HBV variant; test: Antiviral activity in HepG2 cells transiently transfected with rtL180M/M204V HBV variant; format: cell-based, HBV genotype B; details: up to the highest concentration tested (100 μM)
# Description: as §1, §2
smiles,measurement,setting,value
"Nc1ccn([C@@H]2CS[C@H](CO)O2)c(=O)n1 [LMV, Lamivudine]",inhibition of replication of rtL180M/M204V/N236T variant,[1],did not inhibit replication
same,inhibition of replication of rtL180M/M204V variant,[2],did not inhibit replication
